Consider one sequence from publication PMC10663510 (Scientific Reports, 2023).

This series deals with T1, MSMEG-3765 (TetR-like repressor).
T1 sequence (looked up, limits assumed): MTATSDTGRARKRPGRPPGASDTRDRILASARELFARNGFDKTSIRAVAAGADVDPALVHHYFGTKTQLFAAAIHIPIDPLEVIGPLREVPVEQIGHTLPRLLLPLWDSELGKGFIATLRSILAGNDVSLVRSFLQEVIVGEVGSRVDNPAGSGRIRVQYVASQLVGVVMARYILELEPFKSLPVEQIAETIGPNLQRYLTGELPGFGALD
The series is described as follows: EMSA. Particulars: dose-dependent increase in free DNA, 20 mM HEPES pH 8.0, 75 mM NaCl, 10 mM MgCl2, 5% glycerol, 20 ul, 30 C 10 min, native 8% PAGE at 4 C, recombinant protein, label: none (SYBR Gold stain), probe letters rebuilt from the primers and the genome. A general note: In EMSA bound probe runs differently from free probe, usually more slowly.

For at least one entry, the source does not settle the construct or the ends of the probe. A weaker result is weaker than the reference pair of the same experiment. Where a protein sequence is shown, tags need not be part of it.

On to “CTGCTGGAGTCCGCCGCCTGAGCCAGGCGTCGCCGACGCCGAAATGTGTCGACGCATCGTCTTCCCACCGGACGACGGCAGGCCTAGAATTCATTGCATGATGACTTCATCGCGCGATGAATTGTCAGCGACGGGGCCCG (double strand) [133 bp MSMEG_3762 upstream operator fragment]”, for which the binding result (ciprofloxacin 400 or 4000 pmol) is “binds more weakly” and the binding result (rifampicin 400 or 4000 pmol (also 100-400 pmol in Fig S6)) is on record as “binds more weakly”.
